Results published in PubChem BioAssay AID624305 (National Center for Advancing Translational Sciences (NCATS), 2012).
Inconclusive means that the source gave no clear call. Such entries were picked first, then a sample of the others. Potencies of inconclusive entries are doubtful fits and often do not repeat. Active and inactive are the calls of the source. The call rests on the fitted dose curve; in most records, active means well fitted activation curve with a large enough effect; inconclusive means small, poorly fitted or top-dose-only effect; inactive means no such curve, though single readings can be large or run the other way.

Experiment: qHTS assay for re-activators of p53 using a Luc reporter: Hit Validation; further: nearly all actives have a fitted effect of over 75% in size; on activation: 0% is about no effect
Conditions: p53-responsive luciferase reporter cells, luminescence, H1299 line expressing heat-sensitive Ala138Val p53; series mostly up to 46.1 µM
Outline: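 Hit confirmation with a 1:5 dilution series, at 37 deg C for 24 hrs, in H1299 cells co-expressing temperature-sensitive p53-A138V and p53-responsive luciferase. Nocodazole served as control; luminescence read after 10 min with detection reagent.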
Potency means the concentration at half of the fitted maximal effect.

Row | Structure (SMILES) | Potency | activation
1 | CC(OC(=O)c1cnccn1)C(=O)Nc1nc(-c2cccc([N+](=O)[O-])c2)cs1 (stereo not given) | inconclusive: 23.1 µM [activator, single point] | –
2 | Cc1ccc(C(C)C)c(OCc2ccc(C(=O)N/N=C/c3ccc(O)cc3O)cc2)c1 | inconclusive: 29.1 µM [activator, single point] | –
3 | O=C(Nc1ccc2c(c1)OCO2)c1cc(Cl)ccn1 | active: 4.61 µM | –
4 | CC(=O)Nc1ccc2oc(-c3ccccc3Br)nc2c1 | inconclusive: 9.2 µM [activator, partial curve, poor fit] | –
5 | Cc1nc(NC(=O)C2CC3CCCC(C2)C3=O)sc1C (stereo not given) | inconclusive: 29.1 µM [activator, partial curve, poor fit] | –
6 | Cc1ccnc(NC(=O)/C=C/c2ccccc2Cl)c1 | inconclusive: 0.184 µM [activator, full curve, poor fit] | –
7 | Cc1ccc(-c2cc(-c3ccccc3)no2)c(O)c1 | inconclusive: 0.231 µM [activator, full curve, poor fit] | –
8 | O=C(NC(=S)Nc1nc2ccccc2s1)c1ccco1 | active: 0.58 µM | –
9 | Cc1csc(SCC(=O)Nc2ccc(C)c(F)c2)n1 | inconclusive: 23.1 µM [activator, single point] | –
10 | O=C(Nn1c(SCc2ccc([N+](=O)[O-])cc2)nc2ccccc2c1=O)c1ccc(F)cc1 | inconclusive: 36.6 µM [activator, single point] | –
11 | Cc1cc(Oc2ccccc2)nc(-c2ccccc2O)n1 | inactive | –
12 | COc1ccc(C(=O)O/N=C(\N)c2ccccc2)c(OC)c1 | active: 0.366 µM | –
13 | O=C(Nc1ccccc1N1CCCCC1)c1ccc([N+](=O)[O-])o1 | inconclusive: 20.6 µM [activator, single point] | –
14 | O=C(NC1CCCCC1)c1ccc(-c2ccccc2F)o1 | active: 3.66 µM | –
15 | Nn1cnnc1N/N=C\c1ccc(-c2ccccc2[N+](=O)[O-])o1 | inactive | –
16 | Cc1ccc2nc(-c3ccc(NC(=O)COC(=O)c4cncc(Br)c4)cc3)sc2c1 | active: 0.146 µM | –
17 | CC(=O)c1c(C)[nH]c(C(=O)OCC(=O)c2ccc(C)s2)c1C | inactive | –
18 | Cc1ccc(C)c(N2CCN(c3cnn(-c4nc5ccccc5s4)c(=O)c3Cl)CC2)c1 | inconclusive: 0.92 µM [activator, full curve, poor fit] | –

Entries from the list above that contain bromine:
Row | Structure (SMILES) | Potency | activation
4 | CC(=O)Nc1ccc2oc(-c3ccccc3Br)nc2c1 | inconclusive: 9.2 µM [activator, partial curve, poor fit] | –
16 | Cc1ccc2nc(-c3ccc(NC(=O)COC(=O)c4cncc(Br)c4)cc3)sc2c1 | active: 0.146 µM | –

(next part)

Row | Structure (SMILES) | Potency | activation
19 | Cc1ccnc2c1ccc1c(C)ccnc12 | inconclusive: 6.51 µM [activator, single point] | –
20 | Cc1ccc2cc3c(N)c(C(=O)N4CCOCC4)sc3nc2c1 | active: 1.03 µM | –
21 | c1cnc2c(OCc3nc4ccccc4[nH]3)cccc2c1 | active: 6.51 µM | –
22 | Cc1ccccc1C(=O)Nc1ccc(Br)cn1 | active: 3.66 µM | –
23 | O=c1sc(/C=N/Nc2ccccc2)c(Cl)n1Cc1ccccc1 | inconclusive: 23.1 µM [activator, single point] | –
24 | Cc1ccc(CCc2nnc(SCC(=O)Nc3cccc(Cl)c3)n2-c2ccccc2)o1 | inactive | –
25 | CS(=O)(=O)N1CCC(C(=O)Nc2cc(Cl)c(Cl)cc2Cl)CC1 | inactive | –
26 | Cc1cc(F)ccc1NC(=O)Nc1ccc2c(c1)OCO2 | inactive | –
27 | O=C(/C=C/c1ccco1)NC(=S)Nc1cc(-c2nc3ccccc3s2)ccc1Cl | inconclusive: 7.31 µM [activator, single point] | –
28 | COc1ccc(NC(=S)NC(=NS(=O)(=O)c2ccc(Cl)cc2)c2ccccc2)cc1 | inconclusive: 36.6 µM [activator, single point] | –
29 | N#CCc1nc(CSc2nc3ccccc3s2)cs1 | inconclusive: 29.1 µM [activator, single point] | –
30 | Cc1ccc(C(=O)c2cc([N+](=O)[O-])ccc2N2CCCCC2)cc1C | inactive | –
31 | O=C(NC1CC1)c1cccc(NC(=O)c2cn3ccccc3n2)c1 | inconclusive: 36.6 µM [activator, partial curve] | –
32 | CCN(CC)c1ccc(NC(=O)CN2CCN(CC(=O)Nc3ccccc3F)CC2)cc1 | inactive | –
33 | CC(C)(C)NC(=O)CSC(=Nc1ccccc1F)NC#N | inconclusive: 29.1 µM [activator, single point] | –
34 | COc1cccc(C(=O)Nc2ccc(NC(=O)C(C)(C)C)cn2)c1 | inconclusive: 1.16 µM [activator, partial curve, poor fit] | –
35 | O=C(NNC(=O)c1ccc(Cl)cc1Cl)c1ccncc1 | – | inactive: -28.8% [at 9.22 µM]
